Values of other authors in patent US9014457B2, “Quantifying cell death” (UCL Business PLC, priority 2009, dated 2015).
For at least one compound, name, drawing or mass did not settle the structure.

Tested on: RGC
Conditions: in vivo; cited from earlier work

COc1ccc2c3c1O[C@H]1C[C@@H](O)C=C[C@@]31CCN(C)C2 [Galantamine]
RGC protection: RGC protection independent of IOP levels
